Our source for the binding values is article PMC11004023.

The chains behind the UniProt entries cited, without tags or fusion partners.
UniProt P37231: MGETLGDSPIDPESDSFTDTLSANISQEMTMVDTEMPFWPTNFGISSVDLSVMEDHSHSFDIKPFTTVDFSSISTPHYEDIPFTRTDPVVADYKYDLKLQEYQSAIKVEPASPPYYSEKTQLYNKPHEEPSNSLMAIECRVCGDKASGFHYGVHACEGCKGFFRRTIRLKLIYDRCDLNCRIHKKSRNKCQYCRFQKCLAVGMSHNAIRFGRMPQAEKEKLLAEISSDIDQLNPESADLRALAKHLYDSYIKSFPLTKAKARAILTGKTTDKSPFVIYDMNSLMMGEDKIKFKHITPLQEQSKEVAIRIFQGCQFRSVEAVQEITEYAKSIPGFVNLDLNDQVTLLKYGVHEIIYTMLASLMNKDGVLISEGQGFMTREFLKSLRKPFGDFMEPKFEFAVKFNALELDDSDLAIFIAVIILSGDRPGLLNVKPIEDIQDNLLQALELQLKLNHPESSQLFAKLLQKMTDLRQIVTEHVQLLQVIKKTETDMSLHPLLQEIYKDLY

No constants are given. Whether binding was seen depends on the method and setting. Binding seen in cells or lysates may run through a third protein. Some entries that bind do so weakly or less than the wild type.

This experiment concerns the target Peroxisome proliferator-activated receptor gamma (PPARγ) (human (endogenous in HTR-8/SVneo)) (UniProt P37231). Nature of the experiment: co-IP; total cell proteins in IP cell lysis buffer; anti-PPARγ or rabbit IgG (control) overnight at 4 °C, agarose beads, 4 washes; PPARγ, Nrf2 and SREBP1 detected by western blot. For orientation: A western blot detects proteins with antibodies after separation by electrophoresis.

B1: Nrf2 (protein, UniProt Q16236 1-605)
chain: MMDLELPPPGLPSQQDMDLIDILWRQDIDLGVSREVFDFSQRRKEYELEKQKKLEKERQEQLQKEQEKAFFAQLQLDEETGEFLPIQPAQHIQSETSGSANYSQVAHIPKSDALYFDDCMQLLAQTFPFVDDNEVSSATFQSLVPDIPGHIESPVFIATNQAQSPETSVAQVAPVDLDGMQQDIEQVWEELLSIPELQCLNIENDKLVETTMVPSPEAKLTEVDNYHFYSSIPSMEKEVGNCSPHFLNAFEDSFSSILSTEDPNQLTVNSLNSDATVNTDFGDEFYSAFIAEPSISNSMPSPATLSHSLSELLNGPIDVSDLSLCKAFNQNHPESTAEFNDSDSGISLNTSPSVASPEHSVESSSYGDTLLGLSDSEVEELDSAPGSVKQNGPKTPVHSSGDMVQPLSPSQGQSTHVHDAQCENTPEKELPVSPGHRKTPFTKDKHSSRLEAHLTRDELRAKALHIPFPVEKIINLPVVDFNEMMSKEQFNEAQLALIRDIRRRGKNKVAAQNCRKRKLENIVELEQDLDHLKDEKEKLLKEKGENDKSLHLLKKQLSTLYLEVFSMLRDEDGKPYSPSEYSLQQTRDGNVFLVPKSKKPDVKKN
With B1, the binding result is “binds”.
